{"sequences": {"note": "Sequences of proteins named here, by UniProt entry; tags and fusion partners are left off.", "UniProt P43354": "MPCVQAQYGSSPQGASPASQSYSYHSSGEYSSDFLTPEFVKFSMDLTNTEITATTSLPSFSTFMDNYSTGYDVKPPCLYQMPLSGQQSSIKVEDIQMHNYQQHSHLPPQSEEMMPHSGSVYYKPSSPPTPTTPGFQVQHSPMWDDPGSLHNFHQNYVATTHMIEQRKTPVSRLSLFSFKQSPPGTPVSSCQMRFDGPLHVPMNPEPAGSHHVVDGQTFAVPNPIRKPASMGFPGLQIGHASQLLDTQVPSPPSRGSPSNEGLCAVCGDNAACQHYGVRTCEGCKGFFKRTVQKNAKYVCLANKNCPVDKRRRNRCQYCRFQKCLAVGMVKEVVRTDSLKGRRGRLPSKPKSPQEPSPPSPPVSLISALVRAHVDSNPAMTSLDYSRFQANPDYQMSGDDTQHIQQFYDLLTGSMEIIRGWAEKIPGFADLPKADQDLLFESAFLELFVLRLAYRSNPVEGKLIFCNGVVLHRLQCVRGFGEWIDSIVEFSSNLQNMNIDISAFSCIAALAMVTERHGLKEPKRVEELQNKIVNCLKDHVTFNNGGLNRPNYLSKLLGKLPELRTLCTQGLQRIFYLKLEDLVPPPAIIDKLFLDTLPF", "UniProt Q13547": "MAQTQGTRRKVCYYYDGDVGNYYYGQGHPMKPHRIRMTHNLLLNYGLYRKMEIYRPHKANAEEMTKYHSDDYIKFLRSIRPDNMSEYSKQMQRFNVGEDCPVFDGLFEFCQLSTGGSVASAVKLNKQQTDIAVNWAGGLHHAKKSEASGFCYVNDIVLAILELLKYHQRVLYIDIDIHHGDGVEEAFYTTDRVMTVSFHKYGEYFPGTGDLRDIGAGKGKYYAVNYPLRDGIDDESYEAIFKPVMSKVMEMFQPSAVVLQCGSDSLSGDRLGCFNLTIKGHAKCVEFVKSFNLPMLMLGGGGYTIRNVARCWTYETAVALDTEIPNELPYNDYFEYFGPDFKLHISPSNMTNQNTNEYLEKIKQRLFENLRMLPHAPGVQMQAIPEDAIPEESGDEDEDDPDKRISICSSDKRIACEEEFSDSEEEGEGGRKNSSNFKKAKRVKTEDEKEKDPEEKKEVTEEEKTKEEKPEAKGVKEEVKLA", "UniProt Q9UKL0": "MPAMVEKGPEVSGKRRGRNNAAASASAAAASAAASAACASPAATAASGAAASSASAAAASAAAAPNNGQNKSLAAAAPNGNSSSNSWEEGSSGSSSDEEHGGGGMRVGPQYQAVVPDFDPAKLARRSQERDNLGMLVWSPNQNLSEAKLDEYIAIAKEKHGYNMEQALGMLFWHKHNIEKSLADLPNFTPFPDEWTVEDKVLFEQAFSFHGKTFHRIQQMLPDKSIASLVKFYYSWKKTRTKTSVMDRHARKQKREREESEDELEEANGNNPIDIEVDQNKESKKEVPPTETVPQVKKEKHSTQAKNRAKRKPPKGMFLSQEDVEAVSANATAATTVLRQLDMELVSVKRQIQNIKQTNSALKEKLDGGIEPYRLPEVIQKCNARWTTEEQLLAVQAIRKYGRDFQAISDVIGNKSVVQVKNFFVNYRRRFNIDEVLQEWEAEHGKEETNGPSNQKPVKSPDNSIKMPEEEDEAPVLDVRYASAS", "UniProt Q96KQ7": "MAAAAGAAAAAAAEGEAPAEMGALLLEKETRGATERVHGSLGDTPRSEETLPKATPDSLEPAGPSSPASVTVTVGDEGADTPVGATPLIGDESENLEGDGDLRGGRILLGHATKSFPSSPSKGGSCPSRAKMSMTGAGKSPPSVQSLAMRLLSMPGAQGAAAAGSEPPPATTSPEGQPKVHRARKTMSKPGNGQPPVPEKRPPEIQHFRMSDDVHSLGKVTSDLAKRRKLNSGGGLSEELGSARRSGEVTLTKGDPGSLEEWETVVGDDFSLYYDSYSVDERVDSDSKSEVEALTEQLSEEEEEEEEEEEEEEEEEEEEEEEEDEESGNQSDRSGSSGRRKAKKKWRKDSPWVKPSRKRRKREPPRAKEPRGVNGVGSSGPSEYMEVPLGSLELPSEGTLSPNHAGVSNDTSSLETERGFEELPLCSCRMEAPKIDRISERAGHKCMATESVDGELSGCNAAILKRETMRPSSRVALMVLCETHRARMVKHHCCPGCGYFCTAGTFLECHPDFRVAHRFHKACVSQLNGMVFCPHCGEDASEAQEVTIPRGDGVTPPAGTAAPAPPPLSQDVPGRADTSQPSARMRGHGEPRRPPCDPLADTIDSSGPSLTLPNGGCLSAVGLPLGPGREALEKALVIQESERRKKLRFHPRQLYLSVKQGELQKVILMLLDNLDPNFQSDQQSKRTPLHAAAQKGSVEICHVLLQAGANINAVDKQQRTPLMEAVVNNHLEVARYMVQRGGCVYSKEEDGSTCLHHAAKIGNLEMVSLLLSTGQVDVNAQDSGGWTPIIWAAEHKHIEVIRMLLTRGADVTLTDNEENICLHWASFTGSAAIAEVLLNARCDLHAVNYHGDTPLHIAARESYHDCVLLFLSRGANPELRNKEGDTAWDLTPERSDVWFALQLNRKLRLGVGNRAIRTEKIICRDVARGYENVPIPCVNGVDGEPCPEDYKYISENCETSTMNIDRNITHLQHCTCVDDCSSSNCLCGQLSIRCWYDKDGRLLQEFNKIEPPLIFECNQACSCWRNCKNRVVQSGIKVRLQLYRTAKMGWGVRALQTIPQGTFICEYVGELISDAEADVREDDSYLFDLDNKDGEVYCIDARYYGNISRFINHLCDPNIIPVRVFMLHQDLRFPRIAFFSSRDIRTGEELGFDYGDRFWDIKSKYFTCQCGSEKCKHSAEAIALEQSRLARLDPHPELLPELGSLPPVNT"}, "source": "paper doi:10.1101/2021.11.16.468784", "note": "Results are given in words; binding and its absence hold for the method and conditions named. Binding seen in cells or lysates may run through a third protein. Some binding calls cover weakened binding; strength is not graded here."}
{"molecular_target": "3X-FLAG-tagged Nurr1 (NR4A2) (human) (UniProt P43354)", "assay": "co-IP"}
{"substance": "HDAC1 (from UniProt Q13547 1-482)", "binding": "binds"}
{"substance": "corepressor 1 of REST (CoREST) (from UniProt Q9UKL0 1-485)", "binding": "binds"}
{"substance": "euchromatic histone lysine N-methyltransferase 2 (EHMT2), also known as G9a (from UniProt Q96KQ7 1-1210)", "binding": "binds"}
